According to PubChem BioAssay AID504834 (National Center for Advancing Translational Sciences (NCATS), 2011):
The whole screen tested about 320,000 compounds, of which about 22,000 (6.9%) were called active. Inconclusive means that the source gave no clear call. Such entries were picked first, then a sample of the others. Calls come from the whole dose curve; as a rule, active = well fitted inhibition curve with a large enough effect; inconclusive = small, poorly fitted or top-dose-only effect, or another doubt; inactive = no such curve, though single readings can be large or run the other way. Where the call is inconclusive, the potency comes from a doubtful curve fit.

assay: Primary qHTS for delayed death inhibitors of the malarial parasite plastid, 96 hour incubation; conditions: P. falciparum luciferase reporter growth; series mostly up to 28.7 µM; activity change, negative = inhibition: at the top concentration
Outline: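 Erythrocytes infected with luciferase-expressing P. falciparum were dispensed at 2% hematocrit and 0.05% parasitemia (final), then incubated with compounds 96 hours at 37 C in 5% CO2. Luminescence after detection reagent addition reported growth.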
% is set by controls: 0 for no effect and ±100 for the full control effect; potency is the fitted concentration of half-maximal effect.

SMILES	activity change, negative = inhibition	Potency
CCC(C)[C@H](NC(=O)N1CCC(Cc2ccccc2)CC1)C(=O)O (stereo partly specified)	inactive: 21.5%	
CCN1CCN(S(=O)(=O)c2ccc(OC)cc2)CC1		inconclusive: 1.17 µM [inhibitor, partial curve]
O=Cc1cn[nH]c1-c1ccccc1	inactive: -3.62%	
CN(C)c1nc(N)nc(CSc2nnnn2-c2ccccc2)n1	inactive: 38.9%	
CCc1ccc(NC(=O)C/C(C)=N/NC(=O)COc2ccccc2C)cc1	inactive: 0.984%	
COc1cc(/C=C2\CCC(C3CCCC3)C2=O)cc(OC)c1OC (stereo unspecified)	inactive: 0%	
COCCCn1c(C)nnc1SCC(=O)Nc1ccc(C(C)=O)cc1		inconclusive: 11.7 µM [inhibitor, partial curve, poor fit]
CC(=O)Oc1ccc(C(=O)Nc2cccc(NC(=O)c3ccco3)c2)cc1		inconclusive: 1.65 µM [inhibitor, partial curve]
O=C(Nc1ccc(-c2nc3cccnc3s2)cc1)c1ccc(Br)o1		inconclusive: 11.7 µM [inhibitor, single point]
CCc1nn(C)c2c(=O)c(=O)c2n(C)[nH]1	inactive: 0.127%	
CCOc1c(N2CCOCC2)c(=O)c1=O	inactive: -8.26%	
Cc1ccccc1Nc1nc(N)nc(COC(=O)CC2CC3CCC2C3)n1 (stereo unspecified)		inconclusive: 18.5 µM [inhibitor, single point]
Cc1[nH]c2ccccc2c1CCNC(=O)c1ccc2c(c1[N+](=O)[O-])C(=O)c1ccccc1C2=O		inconclusive: 4.15 µM [inhibitor, partial curve, poor fit]
Cc1n[nH]c(C)c1S(=O)(=O)N(CC(=O)NC1CCCC1)c1ccc(C(C)C)cc1	inactive: 17.7%	
O=C(CCC1CCCCC1)Nc1nncs1		inconclusive: 18.5 µM [inhibitor, single point]
CCCCNC(=O)C(CC)(ONc1ccccc1C(F)(F)F)c1ccccc1OC (stereo unspecified)		inconclusive: 1.04 µM [inhibitor, partial curve, poor fit]
O=C1O[C@H]([C@@H](O)CO)C(O)=C1O		inconclusive: 18.5 µM [inhibitor, single point]
Cc1ccc(NC(=O)Nc2cc(S(C)(=O)=O)ccc2Cl)cc1	inactive: 151%	
Cc1nc2cc(N3CCCCC3)c(NC(=O)c3ccncc3)cc2c(=O)n1Cc1ccc(Cl)cc1		inconclusive: 2.62 µM [inhibitor, partial curve, poor fit]
COc1ccc(C2=NOC(Cn3nc(C(=O)NCc4ccccc4OC)cc3-c3ccccc3)C2)cc1 (stereo unspecified)		inconclusive: 10.4 µM [inhibitor, single point]
CCc1ccc(/C=N/NC(=O)c2nnn(-c3nonc3N)c2CN2CCc3ccccc32)cc1		inconclusive: 4.15 µM [inhibitor, single point]
O=C(NCc1nnc(SCC(=O)N2CCOCC2)o1)c1c(F)cccc1Cl		inconclusive: 18.5 µM [inhibitor, single point]

Fetched by structure from the entries so far (2):
SMILES	activity change, negative = inhibition	Potency
CCc1nn(C)c2c(=O)c(=O)c2n(C)[nH]1	inactive: 0.127%	
COc1cc(/C=C2\CCC(C3CCCC3)C2=O)cc(OC)c1OC (stereo unspecified)	inactive: 0%	

More structures follow:

SMILES	activity change, negative = inhibition	Potency
Cc1cc(C)cc(NC(=O)C2(c3cccs3)CCOCC2)c1		inconclusive: 9.28 µM [inhibitor, single point]
Cc1ccc2c(c1)C(c1ccc(F)cc1)N(C(=O)C1CC1)CC(=O)N2 (stereo unspecified)		inconclusive: 8.28 µM [inhibitor, single point]
C/C(Cl)=C/CSc1nc2c(c(=O)[nH]c(=O)n2C)n1C(C)C		inconclusive: 11.7 µM [inhibitor, partial curve, poor fit]
COc1cccc(-c2nnc(NC(=O)c3cccc(F)c3)o2)c1		inconclusive: 13.1 µM [inhibitor, partial curve]
CS(=O)(=O)Nc1ccc(C2=NN(C(=O)c3ccco3)C(c3ccco3)C2)cc1 (stereo unspecified)		inconclusive: 18.5 µM [inhibitor, single point]
O=S(=O)(c1ccc2ccccc2c1)N1CCN(C(=S)Nc2ccc(F)c(Cl)c2)CC1		active: 0.329 µM
CC1=C(C(=O)OC2CCCC2)C(c2coc3ccc(C)cc3c2=O)C2=C(CCCC2=O)N1 (stereo unspecified)	inactive: 4.12%	
CCOC(=O)c1cc2occc2n1CCCN1C(=O)c2ccccc2C1=O		inconclusive: 10.4 µM [inhibitor, partial curve, poor fit]
CCCCn1c(SCc2cc(=O)[nH]c3ccccc23)nc2c1c(=O)n(C)c(=O)n2C		inconclusive: 18.5 µM [inhibitor, single point]
Cc1ccc(NC(=O)c2ccc(F)c(S(=O)(=O)N3CCOCC3)c2)cc1F	inactive: 36.1%	
CCC(=O)Nc1cc2c3c(c1)CCC(=O)N3CCC2		inconclusive: 18.5 µM [inhibitor, single point]
O=C(Nc1nc2c(Cl)ccc(Cl)c2s1)c1ccco1	inactive: 27.1%	
Nc1nc(SCc2ccccc2Cl)nc2nc3c(cc12)CCCC3	inactive: -17.4%	
O=C(N/N=C/c1ccccc1[N+](=O)[O-])c1ccc(COc2ccccc2-c2ccccc2)cc1		inconclusive: 10.4 µM [inhibitor, partial curve, poor fit]
COc1ccc(CC(=O)Nc2sc(Cc3ccccc3)c(C)c2C(N)=O)cc1		inconclusive: 10.4 µM [inhibitor, partial curve, poor fit]
CC(Cc1ccccc1)NCc1ccccc1O (stereo unspecified)		inconclusive: 3.29 µM [inhibitor, single point]
O=S(=O)(NC1c2cccc3cccc(c23)C1Sc1ncccn1)c1ccccc1 (stereo unspecified)		inconclusive: 7.38 µM [inhibitor, partial curve, poor fit]
COc1cc(C(=O)OCC(=O)c2cc(C)n(CC3CCCO3)c2C)cc(OC)c1C (stereo unspecified)	inactive: -7.82%	
CC(OC(=O)C12CC3CC(CC(O)(C3)C1)C2)C(N)=O (stereo unspecified)	inactive: 25%	
O=C(CNC1=NCCC1)c1ccc(Cl)cc1		active: 11.7 µM
C=CCOc1cccc(C2C(C(=O)c3ccc(C)o3)=C(O)C(=O)N2CCN(C)C)c1 (stereo unspecified)		active: 3.7 µM
Cc1ccc(NC(=O)CCCSc2nc3ccccc3[nH]2)cc1	inactive: -20.8%	
O=C(COC(=O)c1c2c(nc3ccccc13)/C(=C\c1cccs1)CCC2)Nc1ccccc1Cl		inconclusive: 18.5 µM [inhibitor, single point]
